Experiment [1] concerns the target T1, JAZ8 fused to the N-terminal fragment of Venus (JAZ8-nVenus) (Arabidopsis thaliana) (UniProt Q8LBM2).
T1 sequence: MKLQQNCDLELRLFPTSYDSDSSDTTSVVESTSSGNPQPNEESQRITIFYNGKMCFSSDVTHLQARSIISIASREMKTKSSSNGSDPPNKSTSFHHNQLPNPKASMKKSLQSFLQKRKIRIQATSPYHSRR
The experiment in a line: split reporter; BiFC with nVenus and cVenus fusions co-expressed in Nicotiana benthamiana leaf cells by Agrobacterium infiltration; 50 uM MG132 applied after 24 h, fluorescence observed after a further 24 h.

The chains behind the UniProt entries cited, without tags or fusion partners.
UniProt Q8VYM0: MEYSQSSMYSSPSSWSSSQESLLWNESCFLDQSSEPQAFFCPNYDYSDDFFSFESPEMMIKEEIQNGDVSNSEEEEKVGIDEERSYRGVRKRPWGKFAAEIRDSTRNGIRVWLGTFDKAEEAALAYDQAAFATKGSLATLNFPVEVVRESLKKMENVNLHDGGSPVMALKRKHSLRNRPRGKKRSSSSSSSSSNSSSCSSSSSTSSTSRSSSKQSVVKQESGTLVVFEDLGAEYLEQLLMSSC
UniProt Q9LND1: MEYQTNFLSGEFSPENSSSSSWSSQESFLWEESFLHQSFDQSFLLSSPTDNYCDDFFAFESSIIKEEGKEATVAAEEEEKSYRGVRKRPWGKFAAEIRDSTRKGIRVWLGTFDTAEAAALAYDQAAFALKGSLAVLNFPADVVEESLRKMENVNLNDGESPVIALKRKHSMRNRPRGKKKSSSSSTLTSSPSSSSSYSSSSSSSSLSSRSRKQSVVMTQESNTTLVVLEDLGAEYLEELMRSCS

Experiment [2] addresses T2, jasmonate-associated VQ-motif gene1 (JAV1) fused to the N-terminal fragment of Venus (JAV1-nVenus) (Arabidopsis thaliana) (UniProt Q9LIE6).
T2 sequence: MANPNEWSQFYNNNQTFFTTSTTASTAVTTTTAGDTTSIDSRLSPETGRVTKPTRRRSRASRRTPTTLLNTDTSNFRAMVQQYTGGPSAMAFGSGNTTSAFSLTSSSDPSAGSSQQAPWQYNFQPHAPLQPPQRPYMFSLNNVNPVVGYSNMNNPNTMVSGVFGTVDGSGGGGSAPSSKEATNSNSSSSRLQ
The description is as above.

No constants are given. Whether binding was seen depends on the method and setting. In cells and extracts the contact can be indirect. Some entries that bind do so weakly or less than the wild type. Where a sequence is shown, tags or fusion partners need not be part of it.

With “ERF15 fused to the C-terminal fragment of Venus (ERF15-cVenus) (from UniProt Q8VYM0 1-243)”, the binding entry in experiment [1] was “no binding”; in experiment [2] it was “binds”.
On to “ORA59 fused to the C-terminal fragment of Venus (ORA59-cVenus) (from UniProt Q9LND1 1-244)”, for which the binding entry in experiment [2] is listed as “binds”.

B1: bZIP53 fused to the C-terminal fragment of Venus (bZIP53-cVenus) (protein, UniProt Q9LZP8 1-146)
chain: MGSLQMQTSPESDNDPRYATVTDERKRKRMISNRESARRSRMRKQKQLGDLINEVTLLKNDNAKITEQVDEASKKYIEMESKNNVLRAQASELTDRLRSLNSVLEMVEEISGQALDIPEIPESMQNPWQMPCPMQPIRASADMFDC
In the case of B1, in experiment [2], the binding result was “binds”.

Values taken from article PMC9863049.
